For this series, the system named is Sprague-Dawley rats. Kind of series: Biocompatibility study, gel injected into intra-gluteal muscle pocket. It is filed as in vivo. The settings on record: 100 μl gel, rat. As to the method:
A biocompatibility study was performed on Gly-Val-Ala-Val-Ala-Val-Ala-Glu-Gly-Glu (SEQ ID NO: 4), Gly-Phe-Gly-Phe-Gly-Phe-Gly-Glu-Gly-Glu (SEQ ID NO: 5) and Gly-Phe-Gly-Phe-Gly-Phe-Gly-Gln-Gln-Ser (SEQ ID NO: 8) DPAs. Lyophilized DPA powders were e-beam sterilized in 1.5 cc polypropylene cryovials at 15 KGy. Gels were pre-formed in 1 cc syringes by mixing a 4 wt % DPA solution in water for injection in a 1:1 ratio with DMEM followed by immediate aspiration into the syringe. In the case of the formulations with the Glu-Gly-Glu (SEQ ID NO: 27) sequence in the solubility enhancing region, 10 μl of a sterile 100 mg/cc calcium chloride solution was mixed in before aspiration into the syringe. An intra-gluteal muscle pocket was created in Sprague-Dawley rats after which 100 μl of gel was injected using a catheter fitted to the syringe. Subsequently, the pocket was closed with polyglactin 910 sutures sold under the tradename VICRYL (Ethicon, Somerville, N.J.). Tissue was harvested at 3, 7 and 28 days after implantation.

Entries after “also recorded” stand apart in the source; their conditions may differ.

With `CCCCCCCCCCCCCCCC(=O)NC(C(=O)NCC(=O)N[C@@H](Cc1ccccc1)C(=O)NCC(=O)N[C@@H](Cc1ccccc1)C(=O)NCC(=O)N[C@@H](Cc1ccccc1)C(=O)NCC(=O)N[C@@H](CCC(N)=O)C(=O)N[C@@H](CCC(N)=O)C(=O)N[C@@H](CO)C(=O)O)C(=O)NCC(=O)N[C@@H](Cc1ccccc1)C(=O)NCC(=O)N[C@@H](Cc1ccccc1)C(=O)NCC(=O)N[C@@H](Cc1ccccc1)C(=O)NCC(=O)N[C@@H](CCC(N)=O)C(=O)N[C@@H](CCC(N)=O)C(=O)N[C@@H](CO)C(=O)O` [Gly-Phe-Gly-Phe-Gly-Phe-Gly-Gln-Gln-Ser], the “Detection of gel at implant site after 28 days” value (shortened to “Detection of gel at implant site”) was “no longer detected”. Also, the “Detection of gel at implant site” value (listed as Gly-Phe-Gly-Phe-Gly-Phe-Gly-Gln-Gly-Gln (SEQ ID NO: 40)) is recorded as “no gel could be detected”. Take `CCCCCCCCCCCCCCCC(=O)NC(C(=O)NCC(=O)N[C@@H](Cc1ccccc1)C(=O)NCC(=O)N[C@@H](Cc1ccccc1)C(=O)NCC(=O)N[C@@H](Cc1ccccc1)C(=O)NCC(=O)N[C@@H](CCC(=O)O)C(=O)NCC(=O)N[C@@H](CCC(=O)O)C(=O)O)C(=O)NCC(=O)N[C@@H](Cc1ccccc1)C(=O)NCC(=O)N[C@@H](Cc1ccccc1)C(=O)NCC(=O)N[C@@H](Cc1ccccc1)C(=O)NCC(=O)N[C@@H](CCC(=O)O)C(=O)NCC(=O)N[C@@H](CCC(=O)O)C(=O)O` [Gly-Phe-Gly-Phe-Gly-Phe-Gly-Glu-Gly-Glu]: the “Detection of gel at implant site” value was “no longer detected; also recorded: no gel could be detected”. As for `CCCCCCCCCCCCCCCC(=O)NC(C(=O)NCC(=O)N[C@H](C(=O)N[C@@H](C)C(=O)N[C@H](C(=O)N[C@@H](C)C(=O)N[C@H](C(=O)N[C@@H](C)C(=O)N[C@@H](CCC(=O)O)C(=O)NCC(=O)N[C@@H](CCC(=O)O)C(=O)O)C(C)C)C(C)C)C(C)C)C(=O)NCC(=O)N[C@H](C(=O)N[C@@H](C)C(=O)N[C@H](C(=O)N[C@@H](C)C(=O)N[C@H](C(=O)N[C@@H](C)C(=O)N[C@@H](CCC(=O)O)C(=O)NCC(=O)N[C@@H](CCC(=O)O)C(=O)O)C(C)C)C(C)C)C(C)C` [Gly-Val-Ala-Val-Ala-Val-Ala-Glu-Gly-Glu], the “Detection of gel at implant site” value is on record as “no longer detected”. Besides, under “listed as Val-Ala-Val-Ala-Val-Ala-Glu-Gly-Glu (SEQ ID NO: 39)”, the “Detection of gel at implant site” value is “no gel could be detected”.

(Values after patent publication US8546338B2, “Self-assembling hydrogels based on dicephalic peptide amphiphiles” (Johnson & Johnson Consumer Companies, Inc., priority 2010, dated 2013).)
